PubChem BioAssay AID652259 | Drosophila RNAi Screening Center – 2013
In all, the deposit lists about 22,000 reagents; below is a random part of those that have a named target and a result. Of all reagents, 233 (1.1%) got an active call. 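Light values are raw, unnormalised plate reads; the ratio scores behind the reporter calls were not deposited.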 A number with no mark means an inactive call. A plus sign joins genes that one reagent is predicted to hit. Reagent sequences are not shown. Not stated in the record: the amount of reagent, the time to read-out, the dose of the treatment.

Aim: 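Identify new Wingless signalling regulators in fly cells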 (primary screen)
Cell system: Drosophila clone 8 imaginal disc epithelial cells
Reagents: long dsRNA against Drosophila genes
Challenge: pathway stimulated by co-transfected Wingless expression plasmid
Measured: 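Dual luciferase reads per well after Wingless plasmid stimulation: reporter firefly light and Renilla control light; activity is firefly divided by Renilla, a ratio not deposited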
Reading the numbers: firefly reporter light: higher = more Wg reporter light, before normalisation; Renilla control light: higher = more transfected or surviving cells
Call rule: 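Strong candidates differ from their plate mean by at least two out of four per-plate statistical tests; weak candidates meet just one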
Calls: active = candidate regulator (raises or lowers reporter); inactive = not a candidate

| gene | amplicon | firefly reporter light, replicate 1 | firefly reporter light, replicate 2 | Renilla control light, replicate 1 | Renilla control light, replicate 2 |
| --- | --- | --- | --- | --- | --- |
| gom | DRSC04690 | 1899 | 8896 | 612 | 2797 |
| a6 | DRSC18733 | 2569 | 5891 | 1296 | 2737 |
| ND-13A | DRSC03110 | 3712 | 9366 | 1523 | 3718 |
| Jig | DRSC14974 | 18320 | – | 4643 | – |
| Coq7 + shf | DRSC18448 | 33848 | – | 11356 | – |
| CG13563 | DRSC22153 | 6.50e5 | 6.53e5 | 2.49e5 | 2.21e5 |
| CG15082 | DRSC06513 | 7108 | – | 2653 | – |
| CG14395 | DRSC14852 | 13648 | – | 3131 | – |
| mfas | DRSC16997 | 8421 | – | 2866 | – |
| CG31626 + CG8677 | DRSC21844 | 5.42e5 | 4.72e5 | 2.21e5 | 2.26e5 |
| Prx6c + CG12896 + Prx6b | DRSC06148 | 2720 | 7124 | 694 | 1611 |
| Lipt1 + CG42837 | DRSC07183 | 14476 | – | 3846 | – |
| Con | DRSC08652 | 2374 | – | 1079 | – |
| Amy-d + Amy-p | DRSC21242 | 20985 | – | 11681 | – |
| rux | DRSC18829 | 2070 | 5056 | 688 | 1844 |
| CG14445 | DRSC17938 | 19666 | – | 7053 | – |
| Alp1 | DRSC11781 | 5378 | – | 2860 | – |
| nrv1 | DRSC03382 | 21482 | – | 6002 | – |
| Gr59a | DRSC21550 | 4.09e5 | 3.99e5 | 1.95e5 | 1.91e5 |
| Dolk | DRSC07143 | 5575 | – | 1712 | – |
| CG13060 | DRSC09943 | 9172 | – | 2967 | – |
| sphe | DRSC20203 | 3862 | 9056 | 1463 | 2209 |
| CG34276 | DRSC15811 | 23061 | – | 4984 | – |
| Vajk2 | DRSC02540 | 3961 | 9379 | 1732 | 4658 |
| pigeon | DRSC03565 | 5737 | – | 1856 | – |
| CG14933 + CG42486 | DRSC02415 | 2904 | 11764 | 1831 | 5305 |
| Galk | DRSC10500 | 3478 | – | 1804 | – |
| Cpsf100 | DRSC14146 | 2400 | 4864 | 1645 | 944 |
| Cpr31A | DRSC02779 | 2500 | 4640 | 1121 | 3261 |
